Test results taken from PubChem BioAssay AID1662 (Broad Institute, 2009).
Screen size: about 300,000 compounds; about 4,000 (1.3%) were called active. This list was built around the results that the source calls inconclusive (neither active nor inactive); the mix of calls is not that of the screen.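 Rule for the calls: active = mean replicate score, as percent of positive control median, at least 50; inconclusive = mean below 50 but one replicate at or above 50; inactive = mean and every replicate below 50.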

Assay: kanamycin survival loss of SKKanGAS strain – BacTiter-Glo luminescence, streptokinase expression inhibitor project, primary screen (AID 1662);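 note: strain carries kanamycin resistance gene driven by streptokinase promoter and grows in 40 µg/ml kanamycin; loss of luminescence reflects streptokinase promoter inhibition or plain growth inhibition; 0% = median of DMSO wells and 100% = positive control at its reference dose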
Details: S. pyogenes SKKanGAS, kanamycin growth, 6 h, at 7.5 µM, active compounds read high

SMILES | inhibition
S=c1nc2ccccc2c2nc(-c3ccccc3)[nH]n12 | inconclusive: 46%
Cc1ccc(OCCCc2c(C)n[nH]c2C)cc1 | inconclusive: 44.4%
CCc1ccc(NC(=O)c2ccc(F)c(S(=O)(=O)NCC3COc4ccccc4O3)c2)cc1 (stereo not given) | active: 49.7%
CCN(Cc1ccccc1)S(=O)(=O)c1ccc(C(=O)Nc2nnc(C)o2)cc1 | inconclusive: 35.1%
Cc1ccc(S(=O)(=O)Nc2cc(C)c(O)c(S(=O)(=O)c3ccc(C)cc3)c2)cc1 | inconclusive: 46.3%
O=C(NC(=S)Nc1ccc(Cl)cn1)C(c1ccccc1)c1ccccc1 | active: 76.9%
COc1ccc(Nc2c([N+](=O)[O-])ccc3c2=NC2(CCCCC2)N=3)cc1 | inactive: 4.64%
Cc1ccc(S(=O)(=O)Nc2cccc3cccnc23)cc1 | inconclusive: 44%
CCc1noc(C)c1C(=O)Nc1ccc(C(F)(F)F)cc1 | inconclusive: 41%
CCc1cc(C(=O)N2CCN(c3ncc(C(F)(F)F)cc3Cl)CC2)sc1C | inconclusive: 47.9%
COc1ccc2c(c1)C(=NNc1ccc(C(=O)O)cc1)c1cc(OC)ccc1-2 | inconclusive: 48.7%
CCCCCCCCCCOC(=O)Cn1c(COc2ccc(C)cc2)[n+](C)c2ccccc21 | inconclusive: 33.2%
CS(=O)(=O)c1ccc2nc(NC(=O)c3ccc(=O)[nH]c3)sc2c1 | inactive: -7.68%
CC(NC(=O)C1CCC(CNS(=O)(=O)c2ccc3c(c2)C(C)(C)C(=O)N3C)CC1)c1ccccc1 (stereo not given) | inactive: 2.47%
CSCc1nnc(NC(=O)c2ccc(S(=O)(=O)N(CC(C)C)CC(C)C)cc2)o1 | active: 79.7%
O=C1C=C(NC(=O)Nc2ccc(Cl)c(Cl)c2)CCC1 | inconclusive: 48.6%
Cc1ccccc1NC(=O)NCCCCc1ccccc1 | inconclusive: 46.3%
Cc1ccccc1C(=O)N1CCN(S(=O)(=O)c2cccs2)CC1 | inconclusive: 45.5%
COc1cccc(OC)c1C(=O)N1CCOCC1 | inactive: 7.31%
Cc1cccc(C(=O)N[C@H](C(=O)OCc2cc(=O)n3c(n2)sc2ccccc23)C(C)C)c1 | inconclusive: 34.2%
CCc1nc(NC2CCCCC2)c(C#N)c2c1COC(C)(C)C2 | inconclusive: 48.9%
CCCn1c2c(c(O)c(C(=O)Nc3ncccc3O)c1=O)CCCC2 | inconclusive: 40.3%
CCC(=O)Nc1c(-c2ccc(Cl)cc2)c(=O)c2ccccc2n1C | inactive: -4.43%
CCOC(=O)Cc1c(Sc2ccccc2)c2ccccc2n1C | inactive: -3.1%
CC(C)C(=O)Nc1ccc(C(=O)NNC(=S)NC(=O)c2cccs2)cc1 | inconclusive: 49.3%

Some of these compounds in order of number of heavy atoms, low to high:
SMILES | inhibition
COc1ccc(Nc2c([N+](=O)[O-])ccc3c2=NC2(CCCCC2)N=3)cc1 | inactive: 4.64%
CSCc1nnc(NC(=O)c2ccc(S(=O)(=O)N(CC(C)C)CC(C)C)cc2)o1 | active: 79.7%
CCCCCCCCCCOC(=O)Cn1c(COc2ccc(C)cc2)[n+](C)c2ccccc21 | inconclusive: 33.2%

(more compounds)

SMILES | inhibition
Cc1ccc(-c2nn(-c3ccccc3)cc2/C=C2\SC(=S)N(CC(=O)O)C2=O)cc1 | active: 55.4%
Cc1nc2c(-c3ccccc3)c(C)[nH]n2c(=O)c1Cc1ccccc1 | active: 52.5%
COc1cc(C(=O)OCC(=O)c2c(N)n(C)c(=O)n(C)c2=O)ccc1OCCC(C)C | inconclusive: 25.2%
CC1CCN(c2ccccc2NC(=S)NC(=O)C(C)(C)C)CC1 | active: 57.9%
COC(=O)CCC(C)N1CCC(Oc2ccc(C(=O)NCc3ccccn3)cc2)CC1 (stereo not given) | inactive: 3.22%
S=c1[nH]nc(-c2ccco2)n1-c1ccccc1Cl | inconclusive: 13.2%
O=C(O)CCCCCN1C(=O)/C(=C\c2ccc(-c3ccc(Cl)cc3)o2)SC1=S | inconclusive: 46.5%
O=C(C1=C(O)C(=O)N(Cc2ccco2)C1c1cccc(Cl)c1)c1ccco1 (stereo not given) | inconclusive: 47.1%
O=C(Nc1nc2ccccc2[nH]1)c1ccc(Cl)c(S(=O)(=O)N2CCCC2)c1 | inconclusive: 32.3%
Cc1ccccc1SC1CCN(Cc2nc(C3CC3)no2)CC1 | inactive: -2.61%
O=C1CC(c2ccccc2)=NN1c1nc(-c2ccccc2)cs1 | inconclusive: 42%
Cc1ccc(S[C@@H](CCN2CC[C@H](C(C)(C)C)CCC2=O)c2ccccc2)cc1 | active: 75.8%
CCOC(=O)c1cnc(-n2nc(C)cc2C)nc1N(CC)CC | inconclusive: 49.4%
Cc1cc2nc(CSc3ccccc3)cc(=O)n2[nH]1 | inconclusive: 45.4%
Cc1cccc(NC(=O)NCc2ccc3c(c2)OCO3)c1 | inconclusive: 43.5%
COCCN1Cc2cccc(C(=O)Nc3ccc4c(c3)OCCO4)c2C1=O | inactive: 15.8%
Cc1cccc(C)c1OC1(c2ccccc2)OC(=O)c2ccccc21 (stereo not given) | inconclusive: 33.1%
CCOC(=O)Cn1c(S(=O)(=O)Cc2cccc(F)c2)nc(-c2ccccc2)c1-c1ccccc1 | inactive: -1.05%
Cc1ccc(C(=O)CC(=O)c2ccccc2)cc1 | active: 52.7%
Cc1ccccc1Nc1nc(N)nc(CN(C)Cc2ccccc2Cl)n1 | inconclusive: 46.5%
CCCCNC(=O)c1ccc(NC(C)=O)c(Cl)c1 | inconclusive: 39%
O=[N+]([O-])c1ccc(N=Nc2c(Cl)cc(O)cc2Cl)cc1 | active: 50.3%
COc1ccc(NC(=O)c2ccc3c(c2)NC(=O)CS3)cc1S(=O)(=O)Nc1ccc(Br)cc1 | inconclusive: 44.7%
O=C(O)CCc1nnc(SCC(=O)Nc2cccc(C(F)(F)F)c2)[nH]c1=O | inactive: -0.178%
O=C1C=C(Nc2cccc3cccnc23)c2ccccc2C1=O | active: 63.2%
